According to article PMC8247761, “BZR1 Regulates Brassinosteroid-Mediated Activation of AMT1;2 in Rice”:
For at least one entry, the source does not settle the construct or the ends of the probe. No signal at the amounts used counts as a negative. Tags and fusion partners may be left off the protein sequences shown.

Target: T1, His:BZR1 (Oryza sativa (rice)) (UniProt Q7XI96)
T1 sequence (looked up, limits assumed): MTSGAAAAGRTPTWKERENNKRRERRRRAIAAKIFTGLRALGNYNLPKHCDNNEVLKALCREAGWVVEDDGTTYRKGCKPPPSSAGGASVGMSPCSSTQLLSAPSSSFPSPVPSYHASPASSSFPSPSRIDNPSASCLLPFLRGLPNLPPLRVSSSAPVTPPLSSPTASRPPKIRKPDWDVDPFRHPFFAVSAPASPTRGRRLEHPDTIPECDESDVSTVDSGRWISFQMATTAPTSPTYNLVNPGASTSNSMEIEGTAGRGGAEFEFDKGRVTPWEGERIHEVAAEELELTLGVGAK
Assay: EMSA
Conditions: EMSA: 1 ug His:BZR1, 40k cpm 32P-labeled probe; pH and temperature not given (protocol of Je et al., 2010); recombinant protein; protein details: His (pET28a(+)); label: 32P

Row | Sequence | binding result
1 | GTCTCACCGGGCTGTTTTTTTACGCCGATA (double strand) [probe mA] | no binding
2 | TGGTCGCATCGTTTTTTTGAGCTGCCTATCG (double strand) [probe mB] | no binding
